From paper PMC4281356 (Acta Neurochirurgica, 2014) come the findings set out here.

Strings that start with PEPTIDE1 are HELM notation: dots part the residues, brackets hold end groups and non-standard residues.

A short description of the series: peptide made by a vendor. As to conditions: whole synthesis, amino acid analysis and mass spectrometry.

Take “PEPTIDE1{V.C.H.S.K.T.R.S.N.P.E.N.N.V.G.L}$$$$V2.0”: the “final purity (method not given)” value is on record as “about 97%”.
